Test results as given in paper PMC12431657, “Discovery and mechanistic insights of dibenzoylmethane as a broad spectrum inhibitor of coronavirus” (PLOS Pathogens, 2025).
Where a name gives a salt, the structure may show the parent alone. Read-outs that look alike come from different tables or passages of the source. Among all 3,300 compounds or so, about 95 (3%) showed an effect of 50% or more. Some of the results follow.

Tested on: HCoV-229E
Parameters: species or system Huh-7; HTS, protection from HCoV-229E induced cell death, luminescent cell viability (CellCounting-Lite 2.0), inhibition rate
Conditions: 24 h post infection, 1 h compound pre-incubation, 10 µM, inhibitor

Row | Structure (SMILES) | 229E Inhibition rate | 229E Inhibition rate (229E Inhibition rate, 24 h)
1 | Cc1cc2c(C(C)C)c(O)c(O)c(C=O)c2c(O)c1-c1c(C)cc2c(C(C)C)c(O)c(O)c(C=O)c2c1O [Gossypol] | 9.9% | –
2 | C=CCOC(Cn1ccnc1)c1ccc(Cl)cc1Cl (stereo not drawn) [Imazalil] | 26.3% | –
3 | O=C(/C=C/c1ccc(O)c(O)c1)O[C@@H]1C[C@](O)(C(=O)O)C[C@@H](O)[C@H]1O [Chlorogenic acid] | 7.2% | –
4 | C[C@@H]1O[C@@H](OC[C@H]2O[C@@H](Oc3cc(O)c4c(=O)cc(-c5ccc(O)cc5)oc4c3)[C@H](O)[C@@H](O)[C@@H]2O)[C@H](O)[C@H](O)[C@H]1O [Isorhoifolin] | 0% | –
5 | O=P(O)(O)OC(CO)CO [β-Glycerophosphate (disodium salt hydrate)] | 11.7% | –
6 | COc1ccc(/C=C/c2cc(O)cc(O)c2)cc1 [4'-Methoxyresveratrol] | 21.2% | –
7 | O=c1cc(-c2ccccc2)oc2c1ccc1ccccc12 [Alpha-Naphthoflavone] | 5.7% | –
8 | C=CC1CNC(=S)O1 (racemic) [DL-Goitrin] | 5.7% | –
9 | C[C@]1(Cn2ccnn2)[C@H](C(=O)O)N2C(=O)C[C@H]2S1(=O)=O [Tazobactam] | 3.6% | –
10 | CC[C@@H](CO)NCCN[C@@H](CC)CO [Ethambutol (dihydrochloride)] | 37.8% | –
11 | OC[C@H]1O[C@@](CO)(OC[C@@]2(OC[C@@]3(OC[C@@]4(OC[C@@]5(OC[C@@]6(OC[C@@]7(O[C@H]8O[C@H](CO)[C@@H](O)[C@H](O)[C@H]8O)O[C@H](CO)[C@@H](O)[C@@H]7O)O[C@H](CO)[C@@H](O)[C@@H]6O)O[C@H](CO)[C@@H](O)[C@@H]5O)O[C@H](CO)[C@@H](O)[C@@H]4O)O[C@H](CO)[C@@H](O)[C@@H]3O)O[C@H](CO)[C@@H](O)[C@@H]2O)[C@@H](O)[C@@H]1O [Fructo-oligosaccharide DP8/GF7] | 14.5% | –
12 | CCCCC/C=C\C/C=C\C/C=C\C/C=C\CCCC(=O)O [Arachidonic acid] | 11.1% | –
13 | O=c1cc(-c2ccc(O)c(O)c2)oc2c([C@@H]3O[C@H](CO)[C@@H](O)[C@H](O)[C@H]3O)c(O)cc(O)c12 [Orientin] | 55% | –
14 | CC(=O)CCc1ccc(O[C@@H]2O[C@H](CO)[C@@H](O)[C@H](O)[C@H]2O)cc1 [Raspberry ketone glucoside] | 19.3% | –
15 | CC[C@H]1CN2CC[C@H]1C[C@H]2[C@H](O)c1ccnc2ccc(OC)cc12 [Hydroquinine] | 0% | –
16 | COc1cc(-c2cc(=O)c3c(O)c(OC)c(O)cc3o2)ccc1O [Jaceosidin] | 25.6% | –
17 | NC1CCN(c2nc3c(cc2F)c(=O)c(C(=O)O)cn3-c2ccc(F)cc2F)C1 (stereo not drawn) [Tosufloxacin (tosylate hydrate)] | 0% | –
18 | CC(C)(O)[C@H]1Cc2cc3ccc(=O)oc3cc2O1 [Nodakenetin] | 7.6% | –
19 | O=c1cc(-c2ccccc2)oc2cccc(O)c12 [5-Hydroxyflavone] | 10.5% | –

Row | Structure (SMILES) | 229E Inhibition rate | 229E Inhibition rate (229E Inhibition rate, 24 h)
20 | COc1cc2c(cc1O)CCN[C@]21CS[C@@H]2c3c(OC(C)=O)c(C)c4c(c3[C@H](COC1=O)N1[C@@H]2[C@H]2c3c(cc(C)c(OC)c3O)C[C@@H]([C@@H]1C#N)N2C)OCO4 [Ecteinascidin 770] | 23.4% | –
21 | CC(O)CN (stereo not drawn) [1-Aminopropan-2-ol] | 18.5% | –
22 | NCCCCNCCCN [Spermidine (hydrochloride)] | – | 13.6%
23 | C[C@@H]1O[C@@H](O[C@@H]2[C@@H](O)[C@H](O)[C@@H](CO)O[C@H]2c2c(O)cc(O)c3c(=O)cc(-c4ccc(O)cc4)oc23)[C@H](O)[C@H](O)[C@H]1O [Vitexin-2"-O-rhamnoside] | 8.9% | –
24 | COc1ccccc1C=O [2-Methoxybenzaldehyde] | 9.8% | –
25 | CC(=O)OC(C)C(C)C(=O)OC[C@@]12[C@H]3C[C@]4(C)C(=CC[C@@H]5[C@@]6(C)CC[C@H](O[C@@H]7O[C@H](C(=O)O)[C@@H](O[C@@H]8O[C@H](CO)[C@@H](O)[C@H](O)[C@H]8O)[C@H](O)[C@H]7O[C@@H]7OC[C@@H](O)[C@H](O)[C@H]7O)[C@@](C)(CO)[C@@H]6CC[C@]54C)[C@@H]1CC(C)(C)[C@H](O3)[C@@H]2O (stereo partly drawn) [Sodium aescinate] | 19.6% | –
26 | OC[C@H]1O[C@H](OC[C@H]2O[C@H](OC[C@H]3O[C@H](OC[C@H]4OC(O)[C@H](O)[C@@H](O)[C@@H]4O)[C@H](O)[C@@H](O)[C@@H]3O)[C@H](O)[C@@H](O)[C@@H]2O)[C@H](O)[C@@H](O)[C@@H]1O (stereo partly drawn) [Isomaltotetraose] | 10% | –
27 | CCCCCCCCCCCCC/C=C/[C@@H](O)[C@@H](N)CO [D-erythro-Sphingosine] | 27.8% | –
28 | CCCC[C@H](N)C(=O)O [L-Norleucine] | 10.5% | –
29 | O=C(O)[C@H]1O[C@@H](Oc2cc(O)c3c(=O)cc(-c4ccccc4)oc3c2)[C@H](O)[C@@H](O)[C@@H]1O [Chrysin-7-O-glucuronide] | 17.8% | –
30 | CCC(C)(O)C(=O)O (stereo not drawn) [2-Hydroxy-2-methylbutanoic acid] | 0% | –
31 | COc1cc2c(cc1OC)C(Cc1ccc(O)cc1)N(C)CC2 (stereo not drawn) [Armepavine] | 8.9% | –
32 | Nc1ccccc1C(=O)C[C@@H](N)C(=O)O [D-Kynurenine] | 9.4% | –
33 | O=c1c2c(O)cc(O)cc2oc2c(O)ccc(O[C@@H]3O[C@H](CO)[C@@H](O)[C@H](O)[C@H]3O)c12 [Norswertianolin] | 6.1% | –
34 | COc1cc(-c2cc(=O)c3c(O)cc(O)cc3o2)ccc1O [Chrysoeriol] | 9.8% | –
35 | O=C(O)CP(=O)(O)O [Phosphonoacetic acid] | 13% | –
36 | O=C(O[C@H](Cc1ccc(O)c(O)c1)C(=O)O)C1=Cc2cc(O)c(O)cc2[C@H](c2ccc(O)c(O)c2)[C@H]1C(=O)OC(Cc1ccc(O)c(O)c1)C(=O)O (stereo in doubt) [Rabdosiin] | 40.7% | –
37 | C[C@@H]1O[C@@H](O[C@H]2[C@H](OC(=O)[C@]34CCC(C)(C)C[C@H]3C3=CC[C@@H]5[C@@]6(C)C[C@H](O)[C@H](O[C@@H]7O[C@H](CO)[C@@H](O)[C@H](O)[C@H]7O)C(CO)(CO)[C@@H]6CC[C@@]5(C)[C@]3(C)C[C@H]4O)OC[C@H](O)[C@@H]2O)[C@H](O)[C@H](O)[C@H]1O[C@@H]1OC[C@@H](O)[C@H](O)[C@H]1O [Deapioplatycodin D] | 36.2% | –
38 | COc1cc2c(cc1OC)[C@@H](Cc1ccc(O)c(Oc3cc4c(cc3OC)CCN(C)[C@@H]4Cc3ccc(O)cc3)c1)N(C)CC2 [Liensinine] | – | 44.3%

Two records drawn at random from those above:
Row | Structure (SMILES) | 229E Inhibition rate | 229E Inhibition rate (229E Inhibition rate, 24 h)
36 | O=C(O[C@H](Cc1ccc(O)c(O)c1)C(=O)O)C1=Cc2cc(O)c(O)cc2[C@H](c2ccc(O)c(O)c2)[C@H]1C(=O)OC(Cc1ccc(O)c(O)c1)C(=O)O (stereo in doubt) [Rabdosiin] | 40.7% | –
21 | CC(O)CN (stereo not drawn) [1-Aminopropan-2-ol] | 18.5% | –

Going on with the list:

Row | Structure (SMILES) | 229E Inhibition rate | 229E Inhibition rate (229E Inhibition rate, 24 h)
39 | Cc1cccc2c3c(ccc12)C(=O)C(C(C)CO)=C(O)C3=O (stereo not drawn) [Danshenxinkun A] | 8.5% | –
40 | C=C[C@]1(C)CC[C@@H](C(=C)C)C[C@H]1C(=C)C [β-Elemene] | 20.3% | –
41 | COC(=O)[C@@]12OC[C@]34[C@H]([C@@H](O)[C@@H]1O)[C@@]1(C)CC(=O)C(O)=C(C)[C@@H]1C[C@H]3OC(=O)[C@H](OC(=O)/C=C(\C)C(C)C)[C@@H]24 [Bruceantin] | 15.8% | –
42 | CC(C)CC(=O)C(=O)O [4-Methyl-2-oxopentanoic acid] | 8.6% | –
43 | C/C1=C\CC(C)(C)/C=C/C(=O)/C(C)=C/CC1 [Zerumbone] | 24.5% | –
44 | C[C@]1(C(=O)O)CC[C@]2(C)CC[C@]3(C)C(=CC(=O)[C@@H]4[C@@]5(C)CC[C@H](O[C@@H]6O[C@H](C(=O)O)[C@@H](O)[C@H](O)[C@H]6O[C@@H]6O[C@H](C(=O)O)[C@@H](O)[C@H](O)[C@H]6O)[C@](C)(CO)[C@@H]5CC[C@]43C)[C@@H]2C1 [Licoricesaponin G2] | 21.5% | –
45 | CCCCCCCCCC(=O)O [Decanoic acid] | 8.6% | –
46 | C1CSCSC1 [1,3-Dithiane] | 4.6% | –
47 | Cc1cn([C@H]2C[C@H](O)[C@@H](CO)O2)c(=O)nc1N [5-Methyl-2'-deoxycytidine] | 8.8% | –
48 | C/C1=C\CC[C@]23O[C@H]2[C@@H](OC3=O)c2c(C)coc2C1 [Linderane] | 13.6% | –
49 | OCc1ccccc1O [Salicyl alcohol] | 51.5% | –
50 | Oc1cc(O)c2c(c1)O[C@H](c1cc(O)c(O)c(O)c1)[C@@H](O)C2 [(+)-Gallocatechin] | 54.1% | –
51 | OC[C@@H](O)[C@@H](O)[C@@H](O)CO [Ribitol] | 13.2% | –
52 | Nc1ncnc2c1ncn2[C@@H]1O[C@H](COP(=O)(O)O)[C@@H](O)[C@H]1O [Adenosine 5'-monophosphate monohydrate] | – | 14.6%
53 | COc1ccc(C2COc3cc(O)ccc3C2)c(O)c1OC (stereo not drawn) [Isomucronulatol] | 9.8% | –
54 | COc1c2ccoc2c(OCC(O)C(C)(C)O)c2oc(=O)ccc12 (racemic) [(Rac)-Byakangelicin] | 7.9% | –
55 | Oc1ccc2c(c1)OC[C@H]1c3cc4c(cc3O[C@@H]21)OCO4 [(-)-Maackiain] | – | 10.3%
56 | C[C@@H](O)[C@@H](C)O [(2R,3R)-Butane-2,3-diol] | – | 7.5%
57 | O=S(=O)(O)CCO [Isethionic acid sodium salt] | 0% | –
